# Among all 350,000 compounds or so, about 6,000 (1.7%) were called active. The shares of active, inactive and inconclusive entries below differ from those in the screen. Rule as the data show it: active = CPE inhibition above about 20% (passing the limit was not always enough); inconclusive = no clear call, values can overlap the other calls; tested in BHK-21 cells.
# Experiment: protection of cells from dengue 2 killing – plate reader, single concentration, primary screen (AID 651640);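 also: 0% = median of neutral control wells and 100% = median of positive control wells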
# Settings: DENV2-infected cells, cytopathic effect rescue, at 9.99 µM, active compounds read high
row,SMILES,CPE inhibition
1,OC[C@@H]1[C@H](c2ccc(C#CC3CC3)cc2)[C@H]2CN(CCC(F)(F)F)CCCCN12,inactive: 1.61%
2,CC(C)(C)OC(=O)NC(CC(=O)OCc1ccccc1)C(=O)O (configuration not stated),active: 47.1%
3,CCC(=O)N(C)C[C@H]1Oc2ncc(/C=C/c3ccccc3)cc2C(=O)N([C@@H](C)CO)C[C@@H]1C,active: 41.6%
4,O=C(COC(=O)c1ccc([N+](=O)[O-])cc1Cl)Nc1cccnc1Cl,inconclusive: 54.5%
5,Cc1ccc(S(=O)(=O)N(C)C[C@H]2OCCCC[C@@H](C)Oc3ccc(NS(=O)(=O)c4ccc(Cl)cc4)cc3C(=O)N([C@@H](C)CO)C[C@H]2C)cc1,inactive: -6%
6,CCOc1ccc(C(=O)NCC(=O)N2CCCCCCC2)cc1,active: 22.2%
7,S=c1nn[nH]c2ccccc12,inactive: 0.858%
8,CC(C)(C)c1cc(Cl)ccc1OCCOCCN1CCCC1,inactive: -0.655%
9,CCN(CC)S(=O)(=O)c1ccc(-c2cn3ccc(C)cc3n2)cc1,inconclusive: 24.8%
10,CN(Cc1ccccc1)C(=O)c1ccc(Nc2nc(C(N)Cc3ccccc3)cs2)nc1 (configuration not stated),inconclusive: 70.1%
11,COc1ccccc1NC(=O)N1CC(=O)N2[C@@H](CO)[C@H](c3ccc(C#Cc4ccc(F)cc4)cc3)[C@@H]2C1,active: 33.1%
12,CCOC(=O)c1c(NC(=O)CSc2ncccn2)sc2c1CC(C)(C)NC2(C)C,inactive: -7.8%
13,O=C(Nc1ccccc1F)N[C@H]1CC[C@@H](CCNC(=O)C2CCCCC2)O[C@@H]1CO,inactive: 2.27%
14,C[C@@H]1CN([C@H](C)CO)S(=O)(=O)c2ccc(/C=C/c3ccccc3)cc2O[C@H]1CN(C)Cc1ccccc1,inactive: 4.19%
15,Cc1ccc(S(=O)(=O)N(C)C[C@H]2Oc3c(NS(=O)(=O)c4ccc(F)cc4)cccc3C(=O)N([C@@H](C)CO)C[C@H]2C)cc1,inconclusive: 24.2%
16,Nc1ccc(-c2cnc3ccccc3n2)cc1,inactive: -0.703%
17,CCNC(=O)C[C@@H]1CC[C@@H]2[C@H](COc3ccc(NC(=O)c4ccc(F)c(F)c4)cc3C(=O)N2C)O1,active: 90.1%
18,C=CCn1c(SCCNC(C)=O)nc2cc(-c3ccccc3)sc2c1=O,inconclusive: 28.7%
19,Cc1ccc(NC(=S)NCc2ccc(F)cc2)cc1,inactive: 0.998%
20,CCCC(C(=O)NNC(=O)c1ccncc1)c1ccccc1 (configuration not stated),inconclusive: 30.2%
21,O=C1C2(CCCC13COC(c1ccc(O)cc1)OC3)COC(c1ccc(O)cc1)OC2 (configuration not stated),active: 28.1%
22,CCCCCC(=O)Nc1cccc(C2=NOC3(C2)C[C@H](C(N)=O)N(C(=O)c2ccccc2C(=O)c2ccccc2)C3)c1 (some centres not stated),inconclusive: 41.8%
23,CC(=O)OC[C@@H]1CN(Cc2ccccc2)C[C@H](n2cnc3c(N4CCN(c5ccccc5)CC4)ncnc32)O1,inconclusive: 23.7%
24,CNC(=S)N(Cc1ccc(OC)cc1)C1CC(=O)N(c2ccc(C(=O)OC)cc2)C1=O (configuration not stated),inconclusive: 20.9%

row,SMILES,CPE inhibition
1,CNC[C@@H]1Oc2ccc(NS(C)(=O)=O)cc2CC(=O)N([C@H](C)CO)C[C@H]1C,inconclusive: 24.5%
2,C[C@H](CO)N1C[C@H](C)[C@@H](CN(C)C(=O)NC2CCCCC2)Oc2c(NC(=O)c3cnccn3)cccc2C1=O,inactive: 4.9%
3,COc1ccc(CC(=O)NCCS(=O)(=O)N2CCN(c3ccccc3)CC2)cc1OC,inconclusive: 21.4%
4,NC(=O)CC(NC(=O)c1ccccc1)c1ccc(N2CCC(Cc3ccccc3)CC2)c([N+](=O)[O-])c1 (configuration not stated),inconclusive: 23.4%
5,COc1ccc(NC(=O)N(C)C[C@H]2Oc3cc(C#CCC(C)C)ccc3S(=O)(=O)N([C@H](C)CO)C[C@@H]2C)cc1,inconclusive: 22.8%
6,CO[C@@H]1CN(C)C(=O)c2cc(NS(C)(=O)=O)ccc2OC[C@H](C)N(C(=O)c2ccc3c(c2)OCO3)C[C@@H]1C,inactive: -9.03%
7,CN(C)CC#Cc1ccc([C@H]2[C@H]3CN(C(=O)Nc4ccccc4F)CCCCN3[C@H]2CO)cc1,inconclusive: 35.2%
8,Nn1c(SCc2ccc([N+](=O)[O-])cc2)nc2ccccc2c1=O,inconclusive: 24.9%
9,C[C@H]1CN([C@@H](C)CO)C(=O)c2cc(-c3ccc(C#N)cc3)cnc2O[C@@H]1CN(C)C(=O)CN(C)C,inactive: -0.724%
10,Cc1ccc(-n2c(=O)cc(N3CCN(C(=O)c4ccco4)CC3)[nH]c2=O)cc1,inconclusive: 20.3%
11,O=C(Nc1ccc(F)cc1)N1CC(=O)N2[C@@H](CO)[C@H](c3ccc(C#CC4CC4)cc3)[C@@H]2C1,inactive: 0.264%
12,COC(CNC(=O)c1cn(C)c2ccc(S(=O)(=O)N3CCOCC3)cc2c1=O)OC,inconclusive: 53.8%
13,CN(CC(=O)Nc1ccccc1Br)C(=O)c1ccccc1OCc1ccc(F)cc1,inconclusive: 38.5%
14,COc1cccc(NC(=O)N[C@H]2CC[C@@H](CC(=O)N3CCCCC3)O[C@@H]2CO)c1,inconclusive: 29.6%
15,COc1ccc2c3c([nH]c2c1)[C@H](CO)N(C(=O)c1ccncc1)CC31CN(C)C1,inconclusive: 34.5%
16,CC(C)NC(=O)Nc1ccc2c(c1)C(=O)N([C@H](C)CO)C[C@H](C)[C@@H](CN(C)CC1CC1)OCCCC[C@@H](C)O2,inconclusive: 30.3%
17,C[C@@H]1CN([C@H](C)CO)C(=O)c2cc(-c3cccc(F)c3)cnc2O[C@@H]1CN(C)C(=O)Nc1ccccc1F,inconclusive: -5.65%
18,COc1ccc(NC(=O)N(C)C[C@H]2Oc3ccc(NC(=O)Nc4ccc5c(c4)OCO5)cc3CC(=O)N([C@H](C)CO)C[C@H]2C)cc1,inactive: -4.36%
19,COc1ccc2c3c([nH]c2c1)[C@H](CO)N(CC1CC1)CC31CCN(S(=O)(=O)c2cccc(F)c2)CC1,inactive: -10%
20,O=C(Nc1ccc(Br)cc1F)C1CCN(c2nnc(-n3cccc3)s2)CC1,active: 25.6%
21,O=C(O)CSCC(=O)N(Cc1ccccc1)c1nc(-c2ccccc2)c(-c2ccccc2)s1,inconclusive: 29.1%
22,CCS(=O)(=O)N1CCC2(CC1)CN(C(=O)c1ccc(F)cc1)[C@H](CO)c1[nH]c3cc(OC)ccc3c12,inactive: -4.32%
23,CN(C(=O)c1ccc(NC(=O)C2CCN(C(=O)OC(C)(C)C)CC2)cc1)C1CC1,inconclusive: 30.3%
24,Nc1c(C(=O)Nc2ccc3c(c2)OCCO3)nnn1Cc1ccccc1Cl,inconclusive: 26.9%

# Among those listed so far, two have a COOH group:
row,SMILES,CPE inhibition
2,CC(C)(C)OC(=O)NC(CC(=O)OCc1ccccc1)C(=O)O (configuration not stated),active: 47.1%
21,O=C(O)CSCC(=O)N(Cc1ccccc1)c1nc(-c2ccccc2)c(-c2ccccc2)s1,inconclusive: 29.1%

# Exported bar-delimited: entries from further up.
row | SMILES | CPE inhibition
1 | CNC[C@@H]1Oc2ccc(NS(C)(=O)=O)cc2CC(=O)N([C@H](C)CO)C[C@H]1C | inconclusive: 24.5%
16 | CC(C)NC(=O)Nc1ccc2c(c1)C(=O)N([C@H](C)CO)C[C@H](C)[C@@H](CN(C)CC1CC1)OCCCC[C@@H](C)O2 | inconclusive: 30.3%

# (cont.)

row,SMILES,CPE inhibition
1,COc1ccc2c(c1)CCc1cc(C(=O)O)sc1-2,inactive: -3.64%
2,COc1ccc(CN2CC[C@H]3C=CC[C@@H](C(=O)N4CCOCC4)[C@H]3C2=O)cc1OC,inconclusive: 23%
3,COc1ccccc1-c1cncc(NC(C)=O)n1,active: 27.3%
4,Cc1cc(C)c2nc(SC(C)C(=O)NCC(=O)Nc3ccc(F)c(F)c3F)cc(C)c2c1 (configuration not stated),active: 27.8%
5,CCc1ccc(-c2nc(CSCC(=O)N3CCN(c4ncccn4)CC3)c(C)o2)cc1,active: 86.5%
6,C[C@H]1CCCCO[C@H](CN(C)C(=O)NC2CCCCC2)[C@@H](C)CN([C@@H](C)CO)C(=O)c2cc(NC(=O)Nc3ccc4c(c3)OCO4)ccc2O1,active: 34.9%
7,CCN(CC)CCCNc1cc(C)c(C#N)c2nc3ccccc3n12,inconclusive: 28.6%
8,COCC#Cc1ccc2c(c1)O[C@@H](CN(C)S(=O)(=O)c1cccc(OC)c1)[C@H](C)CN([C@H](C)CO)S2(=O)=O,inactive: -5.21%
9,CN(C)CC(=O)N1CC[C@@H]2[C@H](CO)Nc3ccc(-c4ccc(C(=O)N(C)C)cc4)cc3[C@@H]21,inconclusive: 79.9%
10,COc1ccc(S(=O)(=O)N(C)C[C@@H]2Oc3c(NS(=O)(=O)c4ccc(F)cc4)cccc3C(=O)N([C@H](C)CO)C[C@@H]2C)cc1,inconclusive: 66.8%
11,Cc1ccc2c(NCc3ccco3)nc(NC(C)C)nc2c1,inconclusive: 59.5%
12,CCCC(=O)Nc1ccc2c(c1)C(=O)N(C)[C@@H]1CC[C@@H](CC(=O)N3CCCCC3)O[C@H]1CO2,inconclusive: 44.1%
13,O=C(C[C@@H]1CC[C@@H]2[C@H](COC[C@@H](O)CN2Cc2ccccc2)O1)NCc1ccccc1Cl,active: 33.4%
14,Cc1ccc(CNC(=O)C2CCC(=O)N(CCc3ccccn3)C2)s1 (configuration not stated),active: 33.3%
15,Cc1cccc(N/C=C(\[N+](=O)[O-])S(=O)(=O)c2ccccc2)c1,inactive: -0.865%
16,COc1cccc(S(=O)(=O)N2CC[C@@H]3[C@H]2c2cc(C#Cc4ccccc4)ccc2N[C@@H]3CO)c1,inconclusive: 47.2%
17,O=C(C[C@@H]1C[C@H]2c3cc(NS(=O)(=O)c4ccc(F)cc4)ccc3O[C@H]2[C@@H](CO)O1)NCCc1ccccc1,inconclusive: 36.3%
18,COc1cc(CCCN2C(=S)NC[C@@H]2c2ccccc2)cc(OC)c1OC,active: 25.1%
19,Cc1noc(C(=O)Nc2sc3c(c2C#N)CCC3)c1Cl,inconclusive: 29.3%
20,CCOc1ccc(NC(=O)c2ccc(OCC3CCCO3)cc2)cc1S(=O)(=O)N(CC)CC (configuration not stated),inconclusive: 50%
21,O=C(Cc1cccnc1)N[C@@H]1CC[C@@H](CCNS(=O)(=O)c2ccccc2Cl)O[C@H]1CO,inactive: 3.63%
22,CCCN1[C@H](C(=O)OC)[C@@H](CO)[C@@H]2Cn3c(ccc(C4=CCCC4)c3=O)[C@@H]21,active: 84%
23,C[C@@H]1CN([C@H](C)CO)C(=O)c2cc(NS(=O)(=O)c3cn(C)cn3)ccc2O[C@@H](C)CCCCO[C@@H]1CN(C)CC1CCCCC1,inactive: -1.32%
24,Cc1ccccc1S(=O)(=O)N1CC[C@@H]2[C@H](CO)Nc3ccc(-c4ccccc4F)cc3[C@@H]21,active: 43.3%

# — PubChem BioAssay AID651640 (Broad Institute, 2012)
